Test results: patent US20150132314A1
Numbering of substitutions follows the chain as printed. Results are given in words; binding and its absence hold for the method and conditions named. Some entries that bind do so weakly or less than the wild type.

By UniProt entry, the sequences of proteins in these tests, tags left out. Where a name states a change or a piece, a line headed by the entry shows the natural chain unless it says otherwise. Chains listed by the source or under a name are the forms on record and can include a tag or linker.
cynomolgus IL-17F homodimer, His-tagged (G7P4V0, form named): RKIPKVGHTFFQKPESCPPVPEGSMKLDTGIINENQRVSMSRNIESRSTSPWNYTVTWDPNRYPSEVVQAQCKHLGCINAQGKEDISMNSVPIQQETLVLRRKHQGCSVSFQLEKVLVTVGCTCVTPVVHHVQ

B1: 11C5 antibody (antibody, V domains shown)
VH: QVQLVQSGAEVKKPGASVKVSCKASGYTFTIYYLHWVRQAPGQGLEWMGIINPSGGRTNYAQKFQGRVTMTRDPSTNTVYMELSSLTSEDAAVYYCARGEFSSGWLDYWGQGTTVTVSS
VL: DIQMTQSPSSVSASVGDRVTITCRASQGISSWLAWYQHKPGKAPKLLIYAASSLQSGVPSRFSGSGSGTDFTLTISSLQPEDFATYYCQQANSFPLTFGGGTKVEIK
B2: 1F1 antibody (antibody, V domains shown)
VH: EVQLLESGGGLVQPGGSLRLSCAASGFTFSSYVMSWVRQVPGKGLEWVSAISGRGGNTFYADSVKGRFTISRDNSKNTLYLQMDSLRAEDTAVYYCAKDDRRIAAGSFDYWGQGTTVTVSS
VL: B1 VL with D1A, M4L, V11L, W32A, H38Q, A50D, A51V, Q55E, A91F, F94Y
B3: 5D3 antibody (antibody, V domains shown)
VH: EVQLVESGGGLVQPGRSLRLSCAASGFTFDDYAMHWVRQAPGKGLEWVSGISWNSGSRGYADSVKGRFTISRDNAKNSLYLQMNSLRAEDTALYYCAKDMVYALDVWGQGTTVTVSS
VL: EIVLTQSPGTLSLSPGERATLSCRASQSFSGSYLAWYQQKPGQAPRLLIYDTSSRATGIPDRFSGSGSGTDFTLTISRLEPEDFAVYYCQQYGTWTFGQGTKVEIK
B4: 28B11 antibody (antibody, V domains shown)
VH: QVQLVESGGGLVKPGGSLRLSCAASGFTFSNYYMTWIRQAPGKGLEWISYISSTGGNIYYADSVKGRFTISRDNAQNSLYLQMNSLRAEDTAVYYCARDGGVIISTAMFDYWGQGTTVTVSS
VL: B1 VL with D1A, M4L, V11L, W32A, H38Q, A50D, Q55E, F62L, A91F, F94Y

The binders below were run against cynomolgus IL-17A/IL-17F heterodimer (cynomolgus) (assay: FLISA, cytokine coated on polystyrene beads).

Question: Which binding does the source give for B1 here?
Answer: The binding was “binds”.

Question: With B2 as the binder, how does the binding read?
Answer: The binding was “binds”.

Question: How did the binding turn out when B3 was run?
Answer: Its binding is “binds”.

Question: With B4 as the binder, how does the binding read?
Answer: Its binding is “binds”.

What follows are binders tested against cynomolgus IL-17F homodimer, His-tagged (cynomolgus) (UniProt G7P4V0) (assay: FLISA, cytokine coated on polystyrene beads).

Question: Which binding does the source give for B1 here?
Answer: Its binding is “binds”.

Question: Which binding does the source give for B2 here?
Answer: Its binding is “binds”.

Question: Which binding does the source give for B3 here?
Answer: The binding was “binds”.

Question: B4 was tested. Which binding did it give?
Answer: Its binding is “binds”.

The binders below were run against T1, human IL-17A/IL-17F heterodimer (human) (UniProt Q16552+Q96PD4) (assay: FLISA, cytokine coated on polystyrene beads).
T1 sequence (looked up) 1: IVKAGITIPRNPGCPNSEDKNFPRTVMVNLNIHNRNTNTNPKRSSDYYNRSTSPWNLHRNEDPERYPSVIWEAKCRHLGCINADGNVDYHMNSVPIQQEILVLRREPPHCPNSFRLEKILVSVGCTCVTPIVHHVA
T1 sequence (looked up) 2: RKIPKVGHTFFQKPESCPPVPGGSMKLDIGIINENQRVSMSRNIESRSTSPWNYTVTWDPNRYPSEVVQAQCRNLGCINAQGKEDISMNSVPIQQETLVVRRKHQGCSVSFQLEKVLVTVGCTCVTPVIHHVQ

Question: For B1, which binding is on record?
Answer: The binding was “binds”.

Question: With B2 as the binder, how does the binding read?
Answer: The binding was “binds”.

Question: B3 was tested. Which binding did it give?
Answer: Its binding is “binds”.

Question: For B4, which binding is on record?
Answer: Its binding is “binds”.
